The values that follow are results of earlier work, collected in patent publication US20080286344A1, “Solid form” (priority 2007, published 2008).

As for `CC(C)Cc1ccc(C(C)C(=O)O)cc1` (centres unmarked) [Ibuprofen], where the note is “1 g active in stated g of water”, the “Solubility in water, g of water for 1 g” value is listed as “more than 10,000 g water”. Further, the “Solubility in water (descriptive term)” value (water) is given as “practically insoluble”.
